Some entries repeat one wording, which the source may state once for all of them.

In this data set the test system is liver lysosomal (enzyme) extract. Put plainly: Digestion assay with rat liver lysosomal extract. The data set is classed as biochemical. The conditions noted are these: HPLC and ESI-MS of digestion aliquots. As for the experimental part: Various amino acid combinations, tetrapeptides, were used to link various first moieties (R^5) and an AENA report group second compound (R^6) to form assay substrates (substrates). Cleavage rate of the peptides were evaluated by analysis of digestion of the substrates in the presence of rat lysosomal extract.
Reporting groups were coupled to the C-terminus of the peptide substrates as described above for UV-vis monitoring to explore the influence of amino acid sequence on kinetics of peptide degradation by HPLC. N-(2-aminoethyl)-4-nitroaniline (AENA) or N-(aminoethyl)-5-napthylamine-1-sulfonic acid (EDANS) were used as reporting groups for HPLC monitoring as neither absorptivity nor lambda maximum were affected for either after cleavage from the peptide. The N-terminus of each peptide substrate was modified with either methoxy polyethylene glycol (PEG12) or N-acetyl galactosamine (NAG(OR)3) (FIG. 1).
Proteolytic digestion experiments were carried out at a fixed substrate concentration (0.51 μmol) using liver lysosomal (enzyme) extract (0.45 μg/μL) in a 25 mM MES solution buffered to pH 5 containing 1% CHAPS and 1.8 mM DTT incubated at 37° C. Enzyme extract was activated in the presence of DTT for 15 minutes at 37° C. prior to addition of AENA labeled peptide substrates. At various time points, up to 26 h, 20 μL aliquots were removed and acidified to a pH of 3 with TFA. Analysis of fractions was performed using HPLC with a Aquasil C18 reverse-phase column (250×4.6, Thermofisher, Waltham, Mass.), monitored at 390 nm and 335 nm for AENA and EDANS respectively. Elution was performed with a gradient of acetonitrile and water buffered with 0.1% formic acid. Generation of unmodified reporter molecule was measured. To minimize freeze thaw cycles the lysosomal extract was dispensed into multiple aliquots prior to storage at −80° C. A new aliquot was employed for each study and used immediately upon thawing. Lysosomal extract was sourced from female Hans Wistar rats by differential density gradient centrifugation (Graham et al. 2000). Protein concentration of lysosomal extract was determined by standard BCA protein assay protocols. […]
Rate (also called velocity of degradation or velocity) was extrapolated during early linear turnover (Table 2). As used herein, rate is defined as the linear rate of reporting group generation at less than 50% completion (digestion rate was assumed to be linear at less than 50% completion). For substrates in which cleavage deviated from consecutive first order kinetics, the percent of reporting group liberated at the endpoint of digestion was used as a metric for comparison.
In the case of NAG(OAc)3-FCitAP- AENA [Compound 30], the “generation of H2N-Pro-R6 intermediate (digestion between proline at A1 and A2)” value is given as “did not appear to generate a significant amount of H2N-Pro-R^6 intermediate”.
For PEG12-FKFP- AENA [Compound 24b] the value was “did not appear to generate a significant amount of H2N-Pro-R^6 intermediate”; for NAG(OAc)3-ACitAP- AENA [Compound 37], “did not appear to generate a significant amount of H2N-Pro-R^6 intermediate”.
As for NAG(OH)3-FCitFP-AENA [Compound 22b], the entry is “did not appear to generate a significant amount of H2N-Pro-R^6 intermediate”; as for NAG(OAc)3-FCitVP- AENA [Compound 26], “did not appear to generate a significant amount of H2N-Pro-R^6 intermediate”.
For NAG(OAc)3-VCitFP- AENA [Compound 28] the value was “did not appear to generate a significant amount of H2N-Pro-R^6 intermediate”; for PEG12-FDFP- AENA [Compound 34b], “did not appear to generate a significant amount of H2N-Pro-R^6 intermediate”; for PEG12-ACitFP- AENA [Compound 31], “did not appear to generate a significant amount of H2N-Pro-R^6 intermediate”.
Regarding NAG(OAc)3-FCitFP-AENA [Compound 22a], the “generation of H2N-Pro-R6 intermediate (digestion between proline at A1 and A2)” value was “did not appear to generate a significant amount of H2N-Pro-R^6 intermediate”.

The values are drawn from patent US10005815B2, “Biologically cleavable tetrapeptide linking agents” (Arrowhead Madison Inc., priority 2015, dated 2018).
